At least one structure is not confirmed: it was looked up by name or label, or the drawing left a doubt.
Assays:
[1] = test system: LC3-GFP (H4-LC3-GFP cells); experiment: Starvation induced autophagy in H4-LC3-GFP cells; format: cell-based; details: Hanks buffer 1 h; MBCQ 5 μM, 3-MA 10 mM, wortmannin 0.1 μM
From the text: FIG. 2 depicts results relating to MBCQ inhibition of autophagy induced by starvation. Quantitative measurement of LC3-GFP spot number per cell (a), spot size per cell (b) and spot intensity per cell (c) using HCS and expressed as % of control.

Protein sequences, listed by entry. Tags and fused reporters are not part of them.
UniProt Q8NEB9, whole entry: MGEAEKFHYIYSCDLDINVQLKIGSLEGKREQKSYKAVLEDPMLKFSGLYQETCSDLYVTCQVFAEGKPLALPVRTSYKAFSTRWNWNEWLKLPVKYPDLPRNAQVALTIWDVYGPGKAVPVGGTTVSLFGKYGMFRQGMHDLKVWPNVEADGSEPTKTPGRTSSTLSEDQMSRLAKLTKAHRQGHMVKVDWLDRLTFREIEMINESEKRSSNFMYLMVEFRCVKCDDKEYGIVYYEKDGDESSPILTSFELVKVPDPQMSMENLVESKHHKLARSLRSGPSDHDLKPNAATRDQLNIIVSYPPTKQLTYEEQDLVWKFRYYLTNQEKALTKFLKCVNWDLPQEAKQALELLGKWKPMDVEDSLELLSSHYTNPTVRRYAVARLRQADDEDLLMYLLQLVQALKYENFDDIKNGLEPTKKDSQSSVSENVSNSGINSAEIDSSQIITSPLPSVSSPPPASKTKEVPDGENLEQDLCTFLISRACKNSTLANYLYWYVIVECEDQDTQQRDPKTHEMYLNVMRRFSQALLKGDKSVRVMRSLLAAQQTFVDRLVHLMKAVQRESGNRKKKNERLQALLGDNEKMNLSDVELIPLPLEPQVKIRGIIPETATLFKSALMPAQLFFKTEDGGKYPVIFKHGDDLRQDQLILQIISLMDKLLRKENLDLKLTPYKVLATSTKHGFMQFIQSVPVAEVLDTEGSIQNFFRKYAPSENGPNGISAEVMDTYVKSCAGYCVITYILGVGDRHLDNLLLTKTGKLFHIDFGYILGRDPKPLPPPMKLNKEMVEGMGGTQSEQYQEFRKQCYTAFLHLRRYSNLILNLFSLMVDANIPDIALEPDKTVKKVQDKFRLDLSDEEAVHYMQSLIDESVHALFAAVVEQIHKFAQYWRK

[2] = biological target: T1, Vps34 complex (Homo sapiens, UniProt Q8NEB9); experiment: Vps34 complex kinase assay (PtdIns phosphorylation, TLC); format: biochemical; details: immunoprecipitated HA-Vps34 complex from 293T; wortmannin 10 uM
T1 construct: expressed in transfected cells; host or cells: 293T

## COC[C@H]1OC(=O)c2coc3c2[C@@]1(C)C1=C(C3=O)[C@@H]2CCC(=O)[C@@]2(C)C[C@H]1OC(C)=O [wortmannin]
[1]
  starvation induced autophagy (LC3-GFP spot number, size, intensity): inhibited
[2]
  phosphorylation of PtdIns by Vps34 complex: inhibited
